No constants are given. Whether binding was seen depends on the method and setting. Binding seen in cells or lysates may run through a third protein. Some results given as binding are weak or reduced against the parent protein; the word gives no strength. Where a sequence is shown, tags or fusion partners need not be part of it.

The assay deals with T1, STAM-binding protein (STAMBP) (human (endogenous in MDA-MB-231 and BT549)) (UniProt O95630).
T1 sequence: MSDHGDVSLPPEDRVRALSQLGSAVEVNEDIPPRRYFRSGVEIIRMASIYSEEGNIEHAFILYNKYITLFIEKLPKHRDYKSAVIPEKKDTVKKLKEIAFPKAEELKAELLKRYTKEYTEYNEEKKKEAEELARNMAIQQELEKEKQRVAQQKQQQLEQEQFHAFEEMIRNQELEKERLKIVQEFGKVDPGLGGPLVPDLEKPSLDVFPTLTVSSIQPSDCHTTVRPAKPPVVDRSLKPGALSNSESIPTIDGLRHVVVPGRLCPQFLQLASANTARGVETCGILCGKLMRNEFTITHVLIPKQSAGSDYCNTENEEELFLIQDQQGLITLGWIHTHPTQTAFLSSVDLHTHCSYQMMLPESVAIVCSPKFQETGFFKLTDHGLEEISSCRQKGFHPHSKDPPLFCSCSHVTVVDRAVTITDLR
Briefly: co-IP; endogenous proteins in MDA-MB-231 and BT549 cell lysates; antibody on Dynabeads, 4 °C 1 h, 3 washes with PBS containing 0.5% Tween 20.

B1: retinoic acid-induced 14 (RAI14) (protein, UniProt Q9P0K7 1-980)
chain: MKSLKAKFRKSDTNEWNKNDDRLLQAVENGDAEKVASLLGKKGASATKHDSEGKTAFHLAAAKGHVECLRVMITHGVDVTAQDTTGHSALHLAAKNSHHECIRKLLQSKCPAESVDSSGKTALHYAAAQGCLQAVQILCEHKSPINLKDLDGNIPLLLAVQNGHSEICHFLLDHGADVNSRNKSGRTALMLACEIGSSNAVEALIKKGADLNLVDSLGYNALHYSKLSENAGIQSLLLSKISQDADLKTPTKPKQHDQVSKISSERSGTPKKRKAPPPPISPTQLSDVSSPRSITSTPLSGKESVFFAEPPFKAEISSIRENKDRLSDSTTGADSLLDISSEADQQDLLSLLQAKVASLTLHNKELQDKLQAKSPKEAEADLSFDSYHSTQTDLGPSLGKPGETSPPDSKSSPSVLIHSLGKSTTDNDVRIQQLQEILQDLQKRLESSEAERKQLQVELQSRRAELVCLNNTEISENSSDLSQKLKETQSKYEEAMKEVLSVQKQMKLGLVSPESMDNYSHFHELRVTEEEINVLKQDLQNALEESERNKEKVRELEEKLVEREKGTVIKPPVEEYEEMKSSYCSVIENMNKEKAFLFEKYQEAQEEIMKLKDTLKSQMTQEASDEAEDMKEAMNRMIDELNKQVSELSQLYKEAQAELEDYRKRKSLEDVTAEYIHKAEHEKLMQLTNVSRAKAEDALSEMKSQYSKVLNELTQLKQLVDAQKENSVSITEHLQVITTLRTAAKEMEEKISNLKEHLASKEVEVAKLEKQLLEEKAAMTDAMVPRSSYEKLQSSLESEVSVLASKLKESVKEKEKVHSEVVQIRSEVSQVKREKENIQTLLKSKEQEVNELLQKFQQAQEELAEMKRYAESSSKLEEDKDKKINEMSKEVTKLKEALNSLSQLSYSTSSSKRQSQQLEALQQQVKQLQNQLAECKKQHQEVISVYRMHLLYAVQGQMDEDVQKVLKQILTMCKNQSQKK
Regarding B1, the binding result is given as “binds”.

Values taken from paper PMC9723177.
